Percent effect of library compounds

A: 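Assay of Toxoplasma gondii numbers, read through their beta-galactosidase reporter with a colour substrate. Concentration: 10 µM. The record gives no direction; the compounds picked for IC50 retests had high values, so higher reads as fewer parasites. About 67,000 compounds were tested under these conditions; 0.38% (about 260) showed 50% or more at least once.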
B: 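Whole-parasite assay of Trypanosoma brucei over 72 hours; the read-out is not stated. Compounds at 30 µM. Direction is inferred from retests: higher values go with stronger inhibition. Values scatter widely below zero; nearly all retest evidence comes from the higher of the two concentrations used. About 64,000 compounds were tested under these conditions; 1.5% (about 940) showed 50% or more at least once.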

The filed quantity is “Percent Effect” (%).
The controls that fix the scale are not given in the record; negative values are as filed.
The compounds are a random part of those screened.

With CCC1(CC)Cc2ccccc2-c2nc(NCCCO)[nH]c(=O)c21 the screen gave A: -26.11%; B: 4.537%.
With COCCO[C@@H]1CCN(C(=O)c2ccc(C)o2)[C@@H]1Cc1cccnc1.O=C(O)C(F)(F)F the screen gave A: -9.266%; B: -53.8%.
With O=C(Cn1ccc2ccccc21)NCc1ccc(C(=O)O)cc1 the screen gave A: 4.776%; B: 17.03%.
With CC1N(CC2CC2)C(=O)COC12CCN(C(=O)c1ccncc1)CC2 (stereo not given) the screen gave A: -2.394%; B: -58.94%.
With O=C(O)C(F)(F)F.[H][C@@]12COC[C@]1(COCc1cccnc1)CN(C(=O)c1ccccc1F)C2 the screen gave A: 9.142%; B: -70.93%.
With CCc1nc(CN(C)C2CCN(CCc3ccncc3)C2)no1 (stereo not given) the screen gave A: -13.13%; B: -5.648%.
With Cn1ncc2c(N3CCN(C(=O)c4ccsc4)CC3)ncnc21 the screen gave A: -20.97%; B: -7.354%.
With COc1ccc(CN2CCN(C(C)=O)CC2)cc1SC(F)(F)F the screen gave A: -2.095%; B: -14.65%.
With CN1CCOC(CN(C(=O)CN2CCCC2=O)c2nccs2)C1 (stereo not given) the screen gave A: 5.52%; B: -10.99%.
With CC(=O)NCCNC(=O)C(c1ccccc1C)N(C)C (stereo not given) the screen gave A: -5.95%; B: -17.18%.
With CCn1ccnc1CN1CCN(CCOc2ccc(C#N)cc2)CC1 the screen gave A: -5.137%; B: -5.63%.
With CC(c1ccccn1)N(C)Cc1ccc(-n2cncn2)cc1 (stereo not given) the screen gave A: -9.465%; B: -5.156%.
With CC1(c2ncc(CN(CC(=O)O)Cc3ccccc3)cn2)CCCCO1 (stereo not given) the screen gave A: 2.651%; B: -13.28%.
With O=C1COc2ccc(Br)cc2CN1CC1CC1 the screen gave A: -18.78%; B: 0.4231%.
With COc1ccnc(N2CCN(C(=O)c3ccc(Cl)o3)CC2)n1 the screen gave A: 13.99%; B: -22.68%.
With Cn1nnnc1SC1CCCN(c2cccc(F)c2)C1=O (stereo not given) the screen gave A: 7.344%; B: -36.7%.
With COc1cc2nc(NCc3ccc(C)nc3)nc(N)c2cc1OC the screen gave A: 32.45%; B: 100.6%.
With CC(=O)N[C@@H]1CN(Cc2nnc(-c3ccccc3)o2)C[C@H]1C(C)C the screen gave A: 0.8813%; B: -19.88%.
With Cc1c(-c2nc(-c3cccc(CN4CCOCC4)c3)no2)cnn1C the screen gave A: 8.571%; B: -46.83%.
With [H][C@]12CC[C@]([H])(CN(CC(=O)N(C)C)C1)N(Cc1c(F)cccc1Cl)C2 the screen gave A: 20.54%; B: -14.46%.
With CCCn1cnc2c1CN(S(=O)(=O)Cc1ccccc1)[C@H](C(=O)OC)C2 the screen gave A: -8.503%; B: -20.74%.
With CCc1nnsc1C(=O)NCc1c(C)nn(CCOC)c1C the screen gave A: 6.577%; B: -6.718%.
With NC(=O)c1ccc(C(=O)N(Cc2ccc(O)cc2)CC2CC2)cc1 the screen gave A: -0.4419%; B: -81.52%.
With c1cnnc(N2CCCC(NCc3nc(-c4ccsc4)no3)C2)c1 (stereo not given) the screen gave A: -0.9831%; B: -18.83%.
With Cc1nc(C2CCCN2Cc2nnc(Cc3ccccc3)o2)no1 (stereo not given) the screen gave A: 0.579%; B: -1.231%.
With CC(O)CN(c1ccccc1)S(=O)(=O)c1cc(C(=O)O)cc2c1CCC2 (stereo not given) the screen gave A: -2.397%; B: -22.9%.
With CS(=O)(=O)N1CCC(C(=O)NC(Cc2ccsc2)c2cccnc2)CC1 (stereo not given) the screen gave A: 5.769%; B: -23.69%.
With Cc1cc(C)n(-c2cccc(NC(=O)N3CCC[C@@H]3CO)c2)n1 the screen gave A: 2.059%; B: -19.52%.
With COCC1CN(C(=O)c2cccs2)Cc2nccn2C1 (stereo not given) the screen gave A: -2.429%; B: -24.36%.
With O=C(CCc1cccnc1)N1CCCC(n2cncn2)C1 (stereo not given) the screen gave B: -29.76%.
With CN1CCN(C(=O)CCn2c(C(F)(F)F)cc3cccnc32)CC1 the screen gave A: 23.5%; B: -36.34%.
With Cc1noc(CCNC(=O)C2CSCN2C(=O)C2CCCC2)n1 (stereo not given) the screen gave A: -2.605%; B: -45.62%.
With O=C(CN1CCCCCC1)NCCSc1cnn[nH]1 the screen gave A: 3.631%; B: 11.45%.
With Cc1ccc(S(=O)(=O)N(CCO)C2CC2)cc1N(C)C the screen gave A: -1.951%; B: -39.82%.
With Cc1nc2c(c(=O)[nH]1)CN(C(=O)CCC1CCCN(C)C1)C2 (stereo not given) the screen gave A: -0.8673%; B: -87.74%.
With Cc1ncc(CNC(C)(C)CO)c2cc(C(=O)c3ccc(Br)cc3)oc12 the screen gave A: 20.02%; B: -28.67%.
With Cc1ccc2cc(C(=O)NCCN3CCS(=O)(=O)CC3)c(C)nc2c1 the screen gave A: -0.9485%; B: 36.15%.
With c1cncc(CN2CCn3cc(CN4CCCCC4)nc3C2)c1 the screen gave A: -29.28%; B: 2.759%.
With Cc1cc(O)ccc1-c1cc(-c2cnn(C)c2C2CC2)c(C#N)c(N)n1 the screen gave A: 23.55%; B: 53.81%.
With Cc1noc(C)c1CN1CC2(CCN(C(=O)c3cc[nH]n3)C2)CC1=O (stereo not given) the screen gave A: 3.396%; B: -2.893%.
With O=C(O)C(F)(F)F.[H][C@@]12CN(C(=O)COC)C[C@]1([H])C(=O)N(Cc1csc(C)n1)C2 the screen gave A: 20.33%; B: -18.67%.
With O=C(O)C(F)(F)F.O=C(O)C(F)(F)F.[H][C@@]12CCCO[C@]1([H])[C@@H](OCc1ccncc1)CN2c1nnc(C)s1 the screen gave A: -3.049%; B: 4.538%.
With CCN1C(=O)C2(CCOCC2)c2cc(NC(=O)c3cnccn3)ccc21 the screen gave A: 3.315%; B: -33.78%.
With CC(=O)N1CCOC(CNC(=O)c2cccc(CCC(C)(C)O)c2)C1 (stereo not given) the screen gave A: 14.84%; B: -52.01%.
With CC(C)Cc1cc(C(=O)N2CCC(C(=O)N3CCOCC3)CC2)on1 the screen gave A: -3.605%; B: -2.415%.
With CCOc1ncccc1NC(=O)N1CCCN(C(=O)OC)CC1 the screen gave A: 10.17%.
With CC(C#N)CSc1ccccc1NCC(=O)NCc1cccs1 (stereo not given) the screen gave A: 0.1264%; B: -12.52%.

4 of the entries, repeated:

compound	A	B
Cn1ncc2c(N3CCN(C(=O)c4ccsc4)CC3)ncnc21	-20.97%	-7.354%
CS(=O)(=O)N1CCC(C(=O)NC(Cc2ccsc2)c2cccnc2)CC1 (stereo not given)	5.769%	-23.69%
O=C(CN1CCCCCC1)NCCSc1cnn[nH]1	3.631%	11.45%
CC(O)CN(c1ccccc1)S(=O)(=O)c1cc(C(=O)O)cc2c1CCC2 (stereo not given)	-2.397%	-22.9%

Data taken from ChEMBL document CHEMBL3988442, “University of Dundee, Small-Polar-MMV Screening Library” (2021).